# No constants are given. Whether binding was seen depends on the method and setting. Some entries that bind do so weakly or less than the wild type. For some assays here: Sequences can lack the tags named with a protein.
# Amino acid sequences for entries named in this document (tags omitted). A change or cut given only in a name is not applied to a line headed by its entry. Chains listed by the source or under a name are the forms on record and can include a tag or linker. Residues count along the entry.
# UniProt P37023, residues 22-118: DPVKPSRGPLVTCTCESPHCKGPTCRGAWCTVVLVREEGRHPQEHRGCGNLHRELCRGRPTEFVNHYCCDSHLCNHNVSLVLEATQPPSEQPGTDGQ
# BMP2 homodimer (P12643, residues 283-396): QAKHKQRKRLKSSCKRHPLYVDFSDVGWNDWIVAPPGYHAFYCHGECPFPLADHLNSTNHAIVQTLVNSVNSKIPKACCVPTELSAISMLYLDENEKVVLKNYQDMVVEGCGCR
# BMP2 homodimer with the L333P mutation (P12643, form named): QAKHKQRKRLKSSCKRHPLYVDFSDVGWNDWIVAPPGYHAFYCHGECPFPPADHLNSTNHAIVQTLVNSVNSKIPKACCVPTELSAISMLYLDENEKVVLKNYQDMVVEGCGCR
# UniProt P43026, residues 382-501: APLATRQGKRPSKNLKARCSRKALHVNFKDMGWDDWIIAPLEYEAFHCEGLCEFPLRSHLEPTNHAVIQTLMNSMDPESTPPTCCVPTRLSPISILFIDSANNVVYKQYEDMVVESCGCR
# What was measured:
# Test in all cases: SPR; BIAcore T-200; chimeric Fc-type 1 receptor coupled to a Series S Protein A chip; ligands 6.25-0.049 nM flowed at 50 uL/min, 300 s association, 1000 s dissociation; 20 mM HEPES pH 7.4, 350 mM NaCl, 0.005 % P-20, 0.5 mg/mL BSA, 3.4 mM EDTA; kinetic 1:1 fit (also a bivalent fit); apparent KD = kd/ka; average of N=2; both purified
# FC-(Alk1)2 = FC-(Alk1)2 (UniProt P37023)
# FC-(Alk2)2 = molecular target: T1, FC-(Alk2)2 (UniProt Q04771)
# T1 sequence: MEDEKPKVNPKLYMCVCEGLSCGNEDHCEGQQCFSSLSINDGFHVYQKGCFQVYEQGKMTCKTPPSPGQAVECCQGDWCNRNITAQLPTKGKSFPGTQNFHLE
# FC-(Alk6)2 = molecular target: T2, FC-(Alk6)2 (UniProt O00238)
# T2 sequence: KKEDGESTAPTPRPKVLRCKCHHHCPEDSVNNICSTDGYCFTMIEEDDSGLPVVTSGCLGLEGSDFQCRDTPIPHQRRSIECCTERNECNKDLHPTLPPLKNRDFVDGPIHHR
binding (FC-(Alk1)2),binding (FC-(Alk2)2),Substance,binding (FC-(Alk6)2)
binds weakly,–,BMP2/GDF5 heterodimer (from UniProt P12643 283-396; P43026 382-501) (complex),–
binds weakly,binds weakly,GDF5 homodimer (from UniProt P43026 382-501) (ligand),–
binds weakly,–,BMP2 homodimer (from UniProt P12643 283-396) (ligand),–
–,–,BMP2 homodimer with the L333P mutation (from UniProt P12643 283-396) (ligand),no binding (tested: 6.25 nM (highest ligand concentration))

# — article PMC9893541
